Measured values from patent US4159263A, “(D-Ala^5)-somatostatin and analogues thereof” (American Home Products Corporation, priority 1977, dated 1979).
Part of at least one peptide drawing is inferred or uncertain, most often the ends.

Key:
[1] = tested on: growth hormone; test: Arginine-stimulated growth hormone secretion in Nembutal-anesthetized rats, radioimmunoassay of blood; assay type: in vivo; conditions: albino male rats, subcutaneous, dose 200 ug/kg; control 254 ± 40
Text: (§1) The results of the assay are as follows:

[2] = tested on: insulin; test: Arginine-stimulated insulin secretion in Nembutal-anesthetized rats, radioimmunoassay of blood; assay type: in vivo; conditions: albino male rats, subcutaneous, dose 200 ug/kg; control 321 ± 49
Text: as §1

With `C[C@H](N)C(=O)NCC(=O)N[C@H]1CSSC[C@@H](C(=O)O)NC(=O)[C@H](CO)NC(=O)[C@H]([C@@H](C)O)NC(=O)[C@H](Cc2ccccc2)NC(=O)[C@H]([C@@H](C)O)NC(=O)[C@H](CCCCN)NC(=O)[C@H](Cc2c[nH]c3ccccc23)NC(=O)[C@H](Cc2ccccc2)NC(=O)[C@H](Cc2ccccc2)NC(=O)[C@H](CC(N)=O)NC(=O)[C@H](CCCCN)NC1=O` [Somatostatin] the GH [1] was 50 ± 3 ng/mL and the Insulin [2] was 174 ± 13 μU/ml.
